Measurements as given in the supplement of paper PMC12819154, “High-throughput peptide-centric local stability assay extends protein–ligand identification to membrane proteins, tissues and bacteria” (Nature Structural & Molecular Biology, 2025).
The other results are listed elsewhere or left out. Most values lie at the level of the controls, where differences are scatter.

Amino acid sequences for entries named in this document (tags omitted). A change or cut given only in a name is not applied to a line headed by its entry.
UniProt Q9Y2E8: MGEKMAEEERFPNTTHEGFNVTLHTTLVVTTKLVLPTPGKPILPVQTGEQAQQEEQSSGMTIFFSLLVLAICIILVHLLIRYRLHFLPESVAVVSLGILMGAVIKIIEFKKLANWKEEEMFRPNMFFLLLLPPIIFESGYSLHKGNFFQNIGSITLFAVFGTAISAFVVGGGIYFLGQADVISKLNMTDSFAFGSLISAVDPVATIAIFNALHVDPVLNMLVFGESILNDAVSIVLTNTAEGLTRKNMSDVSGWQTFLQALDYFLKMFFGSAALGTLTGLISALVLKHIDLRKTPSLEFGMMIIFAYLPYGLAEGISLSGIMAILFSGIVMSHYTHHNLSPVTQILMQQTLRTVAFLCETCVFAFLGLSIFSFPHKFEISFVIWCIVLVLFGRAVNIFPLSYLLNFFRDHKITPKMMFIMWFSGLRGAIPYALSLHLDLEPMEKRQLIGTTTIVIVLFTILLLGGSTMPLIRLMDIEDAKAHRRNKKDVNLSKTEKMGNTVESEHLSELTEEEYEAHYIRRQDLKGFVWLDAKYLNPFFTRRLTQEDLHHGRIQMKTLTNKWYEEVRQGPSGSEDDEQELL
UniProt Q9UKL0, whole entry: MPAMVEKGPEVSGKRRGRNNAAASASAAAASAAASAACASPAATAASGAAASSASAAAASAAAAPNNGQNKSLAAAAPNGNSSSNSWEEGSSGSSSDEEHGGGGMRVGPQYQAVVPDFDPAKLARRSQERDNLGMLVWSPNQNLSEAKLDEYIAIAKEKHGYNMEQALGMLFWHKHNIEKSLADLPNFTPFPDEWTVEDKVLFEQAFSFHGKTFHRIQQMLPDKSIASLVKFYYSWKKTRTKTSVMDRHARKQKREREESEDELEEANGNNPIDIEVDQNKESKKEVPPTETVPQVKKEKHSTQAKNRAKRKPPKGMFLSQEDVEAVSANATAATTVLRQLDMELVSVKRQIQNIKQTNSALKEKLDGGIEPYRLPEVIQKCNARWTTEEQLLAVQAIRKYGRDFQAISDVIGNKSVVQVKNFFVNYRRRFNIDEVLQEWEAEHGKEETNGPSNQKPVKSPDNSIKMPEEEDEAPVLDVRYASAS
UniProt Q9UP52: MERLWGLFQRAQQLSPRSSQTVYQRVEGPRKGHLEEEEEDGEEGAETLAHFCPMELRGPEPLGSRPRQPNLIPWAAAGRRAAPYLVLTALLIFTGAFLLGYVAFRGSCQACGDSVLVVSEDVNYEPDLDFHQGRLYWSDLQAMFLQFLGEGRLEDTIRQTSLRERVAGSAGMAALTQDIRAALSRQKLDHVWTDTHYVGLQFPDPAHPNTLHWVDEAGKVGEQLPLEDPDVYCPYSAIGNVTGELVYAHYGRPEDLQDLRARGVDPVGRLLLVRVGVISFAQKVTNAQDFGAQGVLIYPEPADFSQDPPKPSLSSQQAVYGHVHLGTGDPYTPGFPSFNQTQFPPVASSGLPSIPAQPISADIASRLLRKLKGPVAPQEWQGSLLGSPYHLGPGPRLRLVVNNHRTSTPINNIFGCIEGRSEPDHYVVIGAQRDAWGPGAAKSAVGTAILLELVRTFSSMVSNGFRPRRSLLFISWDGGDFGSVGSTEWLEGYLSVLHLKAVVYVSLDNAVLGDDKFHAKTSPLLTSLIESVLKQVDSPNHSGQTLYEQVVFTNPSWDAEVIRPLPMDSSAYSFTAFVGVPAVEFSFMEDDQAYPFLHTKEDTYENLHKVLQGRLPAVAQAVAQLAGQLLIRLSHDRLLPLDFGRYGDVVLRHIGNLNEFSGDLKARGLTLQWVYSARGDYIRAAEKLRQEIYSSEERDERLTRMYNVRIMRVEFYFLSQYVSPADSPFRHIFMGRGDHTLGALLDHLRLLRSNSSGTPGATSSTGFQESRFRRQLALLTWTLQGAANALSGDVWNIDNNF
UniProt Q9UKX7: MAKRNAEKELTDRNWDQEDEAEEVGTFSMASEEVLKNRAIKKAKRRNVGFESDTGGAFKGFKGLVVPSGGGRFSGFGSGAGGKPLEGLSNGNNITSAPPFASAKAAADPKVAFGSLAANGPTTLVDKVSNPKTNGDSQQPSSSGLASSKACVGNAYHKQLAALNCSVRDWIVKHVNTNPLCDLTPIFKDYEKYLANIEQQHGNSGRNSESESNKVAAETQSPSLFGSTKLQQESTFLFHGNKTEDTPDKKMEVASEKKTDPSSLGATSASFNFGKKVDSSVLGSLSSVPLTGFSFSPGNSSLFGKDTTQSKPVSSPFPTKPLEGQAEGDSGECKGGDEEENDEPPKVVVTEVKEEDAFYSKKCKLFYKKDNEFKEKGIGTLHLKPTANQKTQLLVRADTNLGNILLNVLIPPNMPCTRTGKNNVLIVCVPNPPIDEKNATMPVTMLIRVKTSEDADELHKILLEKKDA
UniProt Q9ULG1, whole entry: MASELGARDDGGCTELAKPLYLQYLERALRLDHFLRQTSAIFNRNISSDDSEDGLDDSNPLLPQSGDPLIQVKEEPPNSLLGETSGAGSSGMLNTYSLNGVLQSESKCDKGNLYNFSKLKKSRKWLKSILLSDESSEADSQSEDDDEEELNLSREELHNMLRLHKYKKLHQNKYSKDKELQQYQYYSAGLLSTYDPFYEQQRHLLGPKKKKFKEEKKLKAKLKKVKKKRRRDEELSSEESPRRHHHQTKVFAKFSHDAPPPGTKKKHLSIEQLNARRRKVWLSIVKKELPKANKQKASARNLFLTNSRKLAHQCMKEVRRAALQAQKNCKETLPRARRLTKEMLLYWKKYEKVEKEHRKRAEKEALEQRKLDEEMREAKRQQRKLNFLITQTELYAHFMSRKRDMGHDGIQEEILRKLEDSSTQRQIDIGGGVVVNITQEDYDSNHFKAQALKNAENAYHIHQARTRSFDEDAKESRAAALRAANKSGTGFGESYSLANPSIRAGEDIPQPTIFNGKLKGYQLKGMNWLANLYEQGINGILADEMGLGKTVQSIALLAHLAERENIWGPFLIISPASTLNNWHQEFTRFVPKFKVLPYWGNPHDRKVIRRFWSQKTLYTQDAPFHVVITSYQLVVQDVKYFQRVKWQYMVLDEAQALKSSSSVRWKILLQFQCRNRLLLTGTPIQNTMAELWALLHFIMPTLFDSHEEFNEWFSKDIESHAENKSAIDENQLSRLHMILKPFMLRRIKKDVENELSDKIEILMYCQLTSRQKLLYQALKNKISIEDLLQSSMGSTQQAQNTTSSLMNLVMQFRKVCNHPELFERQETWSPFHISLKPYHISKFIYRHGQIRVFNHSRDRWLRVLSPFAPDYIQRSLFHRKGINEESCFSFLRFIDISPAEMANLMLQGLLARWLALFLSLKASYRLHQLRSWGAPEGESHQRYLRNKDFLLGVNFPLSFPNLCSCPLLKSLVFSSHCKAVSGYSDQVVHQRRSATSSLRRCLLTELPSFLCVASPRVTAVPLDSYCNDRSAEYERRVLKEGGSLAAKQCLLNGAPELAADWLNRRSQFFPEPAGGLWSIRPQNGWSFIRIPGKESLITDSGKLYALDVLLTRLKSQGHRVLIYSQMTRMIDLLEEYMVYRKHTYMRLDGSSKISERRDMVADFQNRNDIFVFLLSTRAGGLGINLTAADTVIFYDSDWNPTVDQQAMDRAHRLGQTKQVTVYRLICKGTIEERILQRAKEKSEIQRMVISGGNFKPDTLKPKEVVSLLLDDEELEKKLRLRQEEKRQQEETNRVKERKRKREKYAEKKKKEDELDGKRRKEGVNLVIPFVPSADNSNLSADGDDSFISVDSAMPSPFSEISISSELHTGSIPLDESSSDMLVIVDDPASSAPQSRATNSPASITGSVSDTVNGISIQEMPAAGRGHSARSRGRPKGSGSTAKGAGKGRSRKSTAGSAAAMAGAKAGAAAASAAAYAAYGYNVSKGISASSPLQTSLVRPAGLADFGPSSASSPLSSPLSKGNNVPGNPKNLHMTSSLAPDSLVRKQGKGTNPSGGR
UniProt Q9UQ05: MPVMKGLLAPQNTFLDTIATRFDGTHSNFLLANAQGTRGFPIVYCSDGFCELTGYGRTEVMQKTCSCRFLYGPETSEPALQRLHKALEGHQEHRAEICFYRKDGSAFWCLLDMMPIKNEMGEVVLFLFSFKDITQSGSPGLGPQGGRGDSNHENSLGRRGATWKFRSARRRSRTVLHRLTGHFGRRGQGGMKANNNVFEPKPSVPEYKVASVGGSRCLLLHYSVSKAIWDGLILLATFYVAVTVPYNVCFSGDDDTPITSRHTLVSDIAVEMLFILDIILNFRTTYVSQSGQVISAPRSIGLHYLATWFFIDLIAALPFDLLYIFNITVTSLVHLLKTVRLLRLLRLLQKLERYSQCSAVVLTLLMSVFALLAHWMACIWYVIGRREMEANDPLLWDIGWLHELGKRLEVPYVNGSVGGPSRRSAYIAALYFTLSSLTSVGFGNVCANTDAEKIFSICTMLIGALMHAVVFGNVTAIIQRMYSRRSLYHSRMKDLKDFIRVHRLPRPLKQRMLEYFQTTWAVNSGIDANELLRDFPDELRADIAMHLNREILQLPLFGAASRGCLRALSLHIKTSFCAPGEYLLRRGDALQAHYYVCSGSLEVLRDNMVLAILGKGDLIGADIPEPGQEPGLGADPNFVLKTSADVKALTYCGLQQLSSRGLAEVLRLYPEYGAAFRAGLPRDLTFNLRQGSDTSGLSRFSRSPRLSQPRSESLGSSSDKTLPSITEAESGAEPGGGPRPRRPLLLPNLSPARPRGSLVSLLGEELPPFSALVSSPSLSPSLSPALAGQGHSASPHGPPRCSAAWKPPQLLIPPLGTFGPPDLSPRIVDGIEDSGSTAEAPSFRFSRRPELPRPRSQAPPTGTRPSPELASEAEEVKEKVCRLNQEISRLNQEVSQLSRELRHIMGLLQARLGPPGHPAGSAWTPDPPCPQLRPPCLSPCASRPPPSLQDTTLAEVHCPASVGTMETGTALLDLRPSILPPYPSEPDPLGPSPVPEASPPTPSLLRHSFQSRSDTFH
UniProt Q9ULH1: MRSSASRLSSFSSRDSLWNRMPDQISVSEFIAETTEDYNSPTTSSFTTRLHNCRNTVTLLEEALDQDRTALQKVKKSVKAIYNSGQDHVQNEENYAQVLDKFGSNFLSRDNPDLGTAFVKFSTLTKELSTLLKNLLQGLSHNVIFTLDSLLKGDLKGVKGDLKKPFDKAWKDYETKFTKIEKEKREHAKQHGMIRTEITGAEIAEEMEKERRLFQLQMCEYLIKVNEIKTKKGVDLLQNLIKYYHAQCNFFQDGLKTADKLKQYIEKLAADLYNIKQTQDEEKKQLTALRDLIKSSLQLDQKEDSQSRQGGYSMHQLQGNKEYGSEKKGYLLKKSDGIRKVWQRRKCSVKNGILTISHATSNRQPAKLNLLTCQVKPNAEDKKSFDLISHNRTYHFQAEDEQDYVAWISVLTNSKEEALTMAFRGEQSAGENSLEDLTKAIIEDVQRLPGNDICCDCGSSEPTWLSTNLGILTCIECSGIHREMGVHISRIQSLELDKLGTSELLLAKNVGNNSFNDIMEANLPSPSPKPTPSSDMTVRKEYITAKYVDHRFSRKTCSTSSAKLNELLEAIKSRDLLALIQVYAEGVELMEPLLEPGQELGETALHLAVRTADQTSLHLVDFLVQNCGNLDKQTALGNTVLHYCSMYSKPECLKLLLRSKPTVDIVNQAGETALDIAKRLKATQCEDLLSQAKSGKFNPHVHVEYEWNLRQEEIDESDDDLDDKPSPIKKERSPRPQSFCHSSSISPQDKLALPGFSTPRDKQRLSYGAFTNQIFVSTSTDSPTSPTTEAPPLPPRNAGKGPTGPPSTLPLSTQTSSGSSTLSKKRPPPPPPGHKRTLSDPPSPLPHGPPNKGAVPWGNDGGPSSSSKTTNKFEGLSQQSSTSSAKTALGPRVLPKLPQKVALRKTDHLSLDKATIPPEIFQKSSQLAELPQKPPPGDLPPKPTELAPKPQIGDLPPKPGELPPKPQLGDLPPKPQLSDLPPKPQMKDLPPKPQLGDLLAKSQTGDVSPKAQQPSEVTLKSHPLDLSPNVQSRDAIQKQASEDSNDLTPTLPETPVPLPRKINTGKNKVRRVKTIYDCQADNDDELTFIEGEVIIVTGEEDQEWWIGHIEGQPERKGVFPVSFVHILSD
UniProt Q9UPY8, whole entry: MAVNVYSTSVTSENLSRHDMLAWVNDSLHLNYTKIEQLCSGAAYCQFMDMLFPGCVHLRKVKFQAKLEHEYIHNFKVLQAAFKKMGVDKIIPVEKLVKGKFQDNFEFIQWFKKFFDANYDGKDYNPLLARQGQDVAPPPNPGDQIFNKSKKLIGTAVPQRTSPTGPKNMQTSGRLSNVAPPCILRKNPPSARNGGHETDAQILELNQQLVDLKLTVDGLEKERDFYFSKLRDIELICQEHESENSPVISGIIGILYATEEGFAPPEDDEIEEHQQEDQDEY
UniProt Q9UNL2: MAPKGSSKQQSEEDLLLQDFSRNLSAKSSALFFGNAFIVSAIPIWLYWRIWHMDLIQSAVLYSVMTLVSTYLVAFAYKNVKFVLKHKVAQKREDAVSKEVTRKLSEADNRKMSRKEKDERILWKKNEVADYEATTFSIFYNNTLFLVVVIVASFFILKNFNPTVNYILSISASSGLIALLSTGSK

Compound: CN[C@@H]1C[C@H]2O[C@@](C)([C@@H]1OC)n1c3ccccc3c3c4c(c5c6ccccc6n2c5c31)C(=O)NC4 [staurosporine]
Assay: log2 fold change of tryptic peptide abundance, ligand vs vehicle (limited proteolysis) (log2 ratio); higher = more trypsin-susceptible (destabilized)
Settings: ligand concentration: 20 uM; sample: K562 cleared lysate; digestion: 4 min, 22 C (HT-PELSA RT4min, Orbitrap Astral)

Target | log2 fold change
AP3M1 (peptide sequence: LLDDVSFHPCIR, peptide start residue: 227) (UniProt Q9Y2T2) | -0.0885
DLGAP4 (peptide sequence: SSVPSHSMSSR, peptide start residue: 701) (UniProt Q9Y2H0) | 0.349
MRPL11 (peptide sequence: IGQPTVSYFLK, peptide start residue: 82) (UniProt Q9Y3B7) | 0.0778
SLC9A8 (peptide sequence: YLNPFFTR, peptide start residue: 534) (UniProt Q9Y2E8) | 0.372
NDUFAF1 (peptide sequence: LLKDEIVDHWR, peptide start residue: 96) (UniProt Q9Y375) | 0.308
RCOR1 (peptide sequence: IQQMLPDKSIASLVK, peptide start residue: 217) (UniProt Q9UKL0) | 0.141
PHF8 (peptide sequence: ATLIIRPK, peptide start residue: 666) (UniProt Q9UPP1) | 0.209
BSN (peptide sequence: HREEEQLLVQR, peptide start residue: 2404) (UniProt Q9UPA5) | 0.301
UniProt Q9Y242 (peptide sequence: VDKAPLTPTGNR, peptide start residue: 257) | 0.457
TFR2 (peptide sequence: LWGLFQR, peptide start residue: 4) (UniProt Q9UP52) | -0.0657
PA2G4 (peptide sequence: AFFSEVER, peptide start residue: 264) (UniProt Q9UQ80) | -0.137
ZHX1 (peptide sequence: INNWDRGPSLIK, peptide start residue: 766) (UniProt Q9UKY1) | 0.169
NUP50 (peptide sequence: LQQESTFLFHGNK, peptide start residue: 230) (UniProt Q9UKX7) | -0.15
DNAJC12 (peptide sequence: DLMLEESDKTHTTK, peptide start residue: 110) (UniProt Q9UKB3) | -0.161
SH3GLB1 (peptide sequence: CGETQKR, peptide start residue: 121) (UniProt Q9Y371) | 1.45
INO80 (peptide sequence: AGAAAASAAAYAAYGYNVSK, peptide start residue: 1465) (UniProt Q9ULG1) | -0.501
TPX2 (peptide sequence: KHPSSPAR, peptide start residue: 289) (UniProt Q9ULW0) | 0.193
UniProt Q9UQ05 (peptide sequence: IVDGIEDSGSTAEAPSFR, peptide start residue: 827) | 0.00267

Individual results from the entries so far:
log2 fold change with TFR2 (peptide sequence: LWGLFQR, peptide start residue: 4) (UniProt Q9UP52) is entered as -0.0657
log2 fold change with UniProt Q9UQ05 (peptide sequence: IVDGIEDSGSTAEAPSFR, peptide start residue: 827) is entered as 0.00267

Continued:

Target | log2 fold change
AMFR (peptide sequence: KDELLQQAR, peptide start residue: 586) (UniProt Q9UKV5) | -0.699
ICK (peptide sequence: LNHANVVK, peptide start residue: 68) (UniProt Q9UPZ9) | -0.411
WDR37 (peptide sequence: YAGHVGSVNSIK, peptide start residue: 195) (UniProt Q9Y2I8) | 0.81
UniProt Q9Y320 (peptide sequence: YNCTGLNFGK, peptide start residue: 184) | 0.368
GSTK1 (peptide sequence: MELLAHLLGEK, peptide start residue: 203) (UniProt Q9Y2Q3) | 0.281
ASAP1 (peptide sequence: TLSDPPSPLPHGPPNK, peptide start residue: 837) (UniProt Q9ULH1) | -0.222
TNRC6B (peptide sequence: QPTGSDELK, peptide start residue: 513) (UniProt Q9UPQ9) | -0.411
ABT1 (peptide sequence: LRAEVAQAK, peptide start residue: 171) (UniProt Q9ULW3) | 0.25
ZNF281 (peptide sequence: DVLLSSSSR, peptide start residue: 194) (UniProt Q9Y2X9) | 0.257
COG6 (peptide sequence: GFIDALTR, peptide start residue: 280) (UniProt Q9Y2V7) | 0.171
MAPRE3 (peptide sequence: LSNVAPPCILRKNPPSAR, peptide start residue: 175) (UniProt Q9UPY8) | 1.33
DRG1 (peptide sequence: IGFVGFPSVGK, peptide start residue: 67) (UniProt Q9Y295) | 0.21
UniProt Q9Y2L5 (peptide sequence: NSDNNLLSLDGLDNEVK, peptide start residue: 272) | -0.728
NOL7 (peptide sequence: VKEVNLQKK, peptide start residue: 137) (UniProt Q9UMY1) | 1.05
UniProt Q9Y2B5 (peptide sequence: QMMENLVIAK, peptide start residue: 188) | 0.461
DERA (peptide sequence: YAAYHDLPMS, peptide start residue: 309) (UniProt Q9Y315) | -0.38
UniProt Q9Y253 (peptide sequence: VPVTSSEAK, peptide start residue: 454) | 0.403
SSR3 (peptide sequence: QQSEEDLLLQDFSR, peptide start residue: 9) (UniProt Q9UNL2) | 0.357
